From the supplement of paper PMC8166895 come the findings set out here.

Counter-ions that a name gives are not always drawn. The list shows a part of the results. Most values lie at the level of the controls, where differences are scatter.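 Melting temperature was read by differential scanning fluorimetry in a single-replicate pilot screen of a library of approved drugs and clinical or known-target compounds. Compounds raising the melting point by at least 2 °C were the top stabilizing hits, and negative shifts mean destabilization.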

In the test the test system is SARS-CoV-2 main protease (Mpro, nsp5). Put plainly: thermal shift ΔTm of Mpro relative to plate average Tm; higher = stronger thermal stabilization of Mpro (binding). The conditions noted are these: 10 µM; protein concentration 1 µM.
With `C=CCOC(Cn1ccnc1)c1ccc(Cl)cc1Cl` (stereo unspecified) [Imazalil], the “thermal shift ΔTm of Mpro” value came to 0.131 °C.
Take `Cc1cc2c(C(C)C)c(O)c(O)c(C=O)c2c(O)c1-c1c(C)cc2c(C(C)C)c(O)c(O)c(C=O)c2c1O`: the “thermal shift ΔTm of Mpro” value came to 1.15 °C.
Then `Cc1cc2c(C(C)C)c(O)c(O)c(C=O)c2c(O)c1-c1c(C)cc2c(C(C)C)c(O)c(O)c(C=O)c2c1O` [Gossypol], with 0.502 °C.
Then `Cc1cc(COc2nc(N)nc3ccn(Cc4ccccn4)c23)no1` [TLR7-agonist-1], with -0.0956 °C; and `C[C@@H]1COC(Nc2ccc3ncnc(Nc4ccc(OCc5nccs5)c(Cl)c4)c3c2)=N1` [Varlitinib], with -0.00505 °C.
With `O=C(/C=C/c1ccc(O)c(O)c1)O[C@@H]1C[C@](O)(C(=O)O)C[C@@H](O)[C@H]1O` [Chlorogenic Acid], the “thermal shift ΔTm of Mpro” value was -0.172 °C.
To `CC[C@@H](CO)NCCN[C@@H](CC)CO` [Ethambutol HCl] belongs -0.0294 °C; to `C=CS(=O)(=O)NC1CCN(C(=O)CNc2cc(I)c(Cl)cc2OC)CC1` [K-Ras(G12C) inhibitor 9], -0.0423 °C.
Then `C[C@]1(Cn2ccnn2)[C@H](C(=O)O)N2C(=O)C[C@H]2S1(=O)=O` [Tazobactam acid], with 0.221 °C; and `CCN(CC)CCCCNc1ncc2cc(-c3cc(OC)cc(OC)c3)c(NC(=O)NC(C)(C)C)nc2n1`, with 0.0899 °C; and `CN1C2CCC1CC(OC(=O)C(O)c1ccccc1)C2` (stereo unspecified) [Homatropine Bromide], with 0.0198 °C.
Then `CCN(CC)CCOCCOC(=O)C(CC)(CC)c1ccccc1` [Oxeladin citrate], with 0.155 °C; and `CCCOc1ccc(C(=O)OCCN(CC)CC)cc1N` [Proparacaine HCl], with 0.0776 °C.
Regarding `O=C(NC1CCN(CC(F)(F)F)CC1)c1ccc(-c2cccc(F)c2)nc1` [HPGDS-inhibitor-1], the “thermal shift ΔTm of Mpro” value was -0.0595 °C.
To `O=C([O-])/C=C/C(=O)[O-].[Fe+2]` [Ferrous fumarate] belongs 0.132 °C; to `CCCCCCCCCCCC[N+](C)(C)CCOc1ccccc1` [Domiphen Bromide], -0.469 °C; to `CC(O)c1ccc(S(=O)(=O)NC(=O)NC2CCCCC2)cc1` (stereo unspecified) [Hydroxyhexamide], -0.0508 °C.
Then `CC(C)NCC(O)c1ccccc1Cl` (stereo unspecified) [Clorprenaline HCl], with -0.0829 °C; and `Cc1ccc(-n2nc(C(C)(C)C)cc2NC(=O)Nc2ccc(OCCN3CCOCC3)c3ccccc23)cc1` [BIRB 796 (Doramapimod)], with -0.153 °C.
Then `CC(C)S(=O)(=O)c1ccc2nccc(Nc3ccc4scnc4c3)c2c1`, with -0.0569 °C.
Turning to `CSC(C)=NO` [Methomyl Oxime], the “thermal shift ΔTm of Mpro” value worked out at 0.258 °C.
With `CNC(=O)c1ccc(C)c(-n2c(C)cc(OCc3ccc(F)cc3F)c(Br)c2=O)c1`, the “thermal shift ΔTm of Mpro” value is -0.164 °C.
Take `Cc1cc(OCc2nnc(SC3CCCC3)n2-c2cccnc2)ccc1-c1ccc(S(C)(=O)=O)cc1`: the “thermal shift ΔTm of Mpro” value is 0.0082 °C.
To `CC1=C[C@H]2C(=O)O[C@H]3C[C@@H](C/C=C(\C)C[C@@H](C)/C=C/C=C4\CO[C@H](/C1=N\O)[C@@]42O)O[C@@]1(CC[C@H](C)[C@@H](C)O1)C3.CC[C@H]1O[C@]2(CC[C@@H]1C)C[C@@H]1C[C@@H](C/C=C(\C)C[C@@H](C)/C=C/C=C3\CO[C@@H]4/C(=N\O)C(C)=C[C@@H](C(=O)O1)[C@]34O)O2` [Milbemycin oxime] belongs -0.393 °C.
To `c1ccc2[nH]ncc2c1` [Indazole] belongs 0.294 °C; to `COCCOc1ccc(N2CCN(CCn3ncc4c3nc(N)n3nc(-c5ccco5)nc43)CC2)cc1` [Preladenant], -0.08 °C.
To `c1ccc(CN(CC2=NCCN2)c2ccccc2)cc1` [Antazoline HCl] belongs -0.029 °C.
As for `CC[C@H](C)C[C@H](C)CCCCCCCCC(=O)N[C@H]1C[C@@H](O)[C@@H](NCCN)NC(=O)[C@@H]2[C@@H](O)CCN2C(=O)[C@H]([C@H](O)CCN)NC(=O)[C@H]([C@H](O)[C@@H](O)c2ccc(O)cc2)NC(=O)[C@@H]2C[C@@H](O)CN2C(=O)[C@H]([C@@H](C)O)NC1=O` [Caspofungin Acetate], the “thermal shift ΔTm of Mpro” value is -0.272 °C.
For `CCn1cc(NC(=S)Nc2cc(Cl)ccc2OC)c(C(N)=O)n1`, the “thermal shift ΔTm of Mpro” value is -0.125 °C.
To `Nc1ncnc2n[nH]c(Nc3ccc(F)cc3)c12` belongs -0.306 °C; to `CN(C)Cc1ccc(S(=O)(=O)n2ccc(/C=C/C(=O)NO)c2)cc1` [Resminostat hydrochloride], 0.0972 °C; to `CN(C)Cc1ccc(S(=O)(=O)n2ccc(/C=C/C(=O)NO)c2)cc1` [Resminostat], -0.171 °C.
Then `CCOc1ccc(Oc2ccc(OCc3cc(F)ccc3F)cc2)c(N)c1`, with -0.249 °C; and `CN(C)CC/C=C1/c2ccccc2COc2ccc(CC(=O)O)cc21` [Olopatadine HCl], with 0.000892 °C; and `COc1ccc(C2(CNC(=O)[C@H](Cc3c[nH]c4ccccc34)NC(=O)Nc3ccc([N+](=O)[O-])cc3)CCCCC2)cc1`, with 0.408 °C.
For the compound `CC(C(=O)O)c1ccc(C(=O)c2ccccc2)s1` (stereo unspecified) [Tiaprofenic acid], the “thermal shift ΔTm of Mpro” value was -0.0447 °C.
